Experiment [1] concerns the target NFATp expressed from an NFATp expression plasmid. As to the kind of experiment: immunoprecipitation/Western blot from HepG2 cells.
The target is the same in experiment [2]. As to the kind of experiment: co-immunoprecipitation with anti-NFATp antibody from transfected HepG2 cells, anti-HA Western blot.

No constants are given. Whether binding was seen depends on the method and setting. A result given as binding can be weak or reduced; the word gives no strength. Where a sequence is shown, tags or fusion partners need not be part of it. For some assays here: Binding seen in cells or lysates may run through a third protein.

B1: HA-tagged NIP45 polypeptide (expression vector NIP45-HA, pCEP4-HA) (protein, not shown: small tags and cut ends)
chain: MAEPLRGRGPRSRGGRGARRARGARGRCPRARQSPARLIPDTVLVDLVSDSDEEVLEVADPVEVPVARLPAPAKPEQDSDSDSEGAAEGPAGAPRTLVRRRRRRLLDPGEAPVVPVYSGKVQSSLNLIPDNSSLLKLCPSEPEDEADLTNSGSSPSEDDALPSGSPWRKKLRKKCEKEEKKMEEFPDQDISPLPQPSSRNKSRKHTEALQKLREVNKRLQDLRSCLSPKQHQSPALQSTDDEVVLVEGPVLPQSSRLFTLKIRCRADLVRLPVRMSEPLQNVVDHMANHLGVSPNRILLLFGESELSPTATPSTLKLGVADIIDCVVLASSSEATETSQELRLRVQGKEKHQMLEISLSPDSPLKVLMSHYEEAMGLSGHKLSFFFDGTKLSGKELPADLGLESGDLIEVWG
Take B1: the binding entry in experiment [1] and in experiment [2] was “binds” each time.
